Read-outs that look alike come from different tables or passages of the source. Results are given in words; binding and its absence hold for the method and conditions named. Binding seen in cells or lysates may run through a third protein. For part of these data: A result given as binding can be weak or reduced; the word gives no strength.
Columns and labels:
Assay in all cases: co-IP
[1] = target: YAP (pCMV6-YAP, mouse) (mouse) (UniProt P46938)
[2] = target: YAP (pCMV6-YAP, mouse) (mouse) (UniProt P46938); remark: listed apart in the source
[3] = target: YAP (mouse (endogenous in mouse ISCs)) (UniProt P46938)

The chains behind the UniProt entries cited, without tags or fusion partners. Where a name states a change or a piece, a line headed by the entry shows the natural chain unless it says otherwise.
UniProt P46938: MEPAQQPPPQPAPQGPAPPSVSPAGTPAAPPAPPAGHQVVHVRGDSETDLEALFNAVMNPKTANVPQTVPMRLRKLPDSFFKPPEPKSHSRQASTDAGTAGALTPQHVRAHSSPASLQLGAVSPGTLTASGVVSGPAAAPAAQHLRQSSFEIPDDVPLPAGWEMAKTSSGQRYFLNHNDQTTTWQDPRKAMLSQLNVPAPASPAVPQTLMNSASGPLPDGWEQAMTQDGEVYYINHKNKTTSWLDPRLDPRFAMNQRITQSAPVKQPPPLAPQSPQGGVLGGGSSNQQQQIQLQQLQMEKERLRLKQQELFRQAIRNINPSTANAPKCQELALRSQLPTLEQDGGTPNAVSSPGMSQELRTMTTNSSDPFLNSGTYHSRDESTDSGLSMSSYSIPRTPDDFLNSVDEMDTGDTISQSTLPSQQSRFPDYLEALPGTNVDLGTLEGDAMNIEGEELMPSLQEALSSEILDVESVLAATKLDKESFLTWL
UniProt P63330: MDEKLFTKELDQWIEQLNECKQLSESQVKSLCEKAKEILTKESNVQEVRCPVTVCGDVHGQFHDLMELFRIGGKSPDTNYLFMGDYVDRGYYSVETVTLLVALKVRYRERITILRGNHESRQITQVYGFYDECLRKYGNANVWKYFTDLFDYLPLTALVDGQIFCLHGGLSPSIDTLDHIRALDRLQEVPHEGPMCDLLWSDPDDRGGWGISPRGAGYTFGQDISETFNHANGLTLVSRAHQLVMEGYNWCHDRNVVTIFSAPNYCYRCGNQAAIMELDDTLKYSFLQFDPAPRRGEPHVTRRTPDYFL

| Substance | binding [1] | binding [2] | binding [3] |
| --- | --- | --- | --- |
| PP2Ac (pCMV6-Pp2ac, mouse) (from UniProt P63330) (enzyme) | binds | no binding (only with LSR co-expressed) |  |
| protein phosphatase 2A catalytic subunit (PP2Ac) (from UniProt P63330) (enzyme) |  |  | binds |

Source: article doi:10.1101/2022.10.30.514401
